The target of this assay is mfFXI.mmh (REGN3883) (cynomolgus monkey (Macaca fascicularis)). Kind of assay: SPR (Biacore), REGN7508 captured on anti-hFcG, 25C, pH 7.4.

Results are given in words; binding and its absence hold for the method and conditions named. Some binding calls cover weakened binding; strength is not graded here.

B1: REGN7508 (antibody, human IgG4 S228P, kappa, V domains shown)
VH: QVQLVESGGGLVKPGGSLRLSCAASGFTFSDYSMNWIRQAPGKGLEWISYISFSGNSIYYADSVKGRFTISRDNAKNSLYLQMNSLRVEDTAIYYCTSRDWGYAFDIWGQGTMVTVSS
VL: DIQMTQSPSFLSASLGDRVTITCQASQDISNYLNWYQVKPGKAPKLLIYDASNLETGVPSRFSGSGSGTDFTFTISSLQPEDIATYFCQQYDNLPYIFGQGTKLEIKR
For the molecule B1, the binding result is listed as “binds”.

The values above are taken from patent US20240190996A1.
